Source: the supplement of paper PMC7238544
Where a name gives a salt, the structure may show the parent alone. ± gives the standard deviation of the averaged measurements. Some of the results follow. The data scatter; read single values as rough.

Experiments:
hAMSC donor 1 [1] = assay: Hoechst total cell count ratio vs vehicle control; higher = more cells (less toxicity)
hAMSC donor 2 [2] = assay: as above
hAMSC donor 1 [3] = assay: transgenic luciferase activity (RLU/mg protein) fold change vs vehicle control (ratio); higher = more transgene expression
hAMSC donor 2 [4] = assay: as above
hAMSC donor 1 [5] = assay: transfection efficiency (EGFP+ cells / Hoechst count) fold change vs vehicle control (ratio); hAMSC are human adipose-derived mesenchymal stem cells given an EGFP-luciferase plasmid by lipofection; higher = enhanced transfection
hAMSC donor 2 [6] = assay: as above
[7] = priming compound concentration 0.2 µM
[8] = priming compound concentration 1.7 µM
[9] = priming compound concentration 13 µM

Compound | Hoechst total cell count ratio (hAMSC donor 1 [1]; [7]) | Hoechst total cell count ratio (hAMSC donor 1 [1]; [8]) | Hoechst total cell count ratio (hAMSC donor 1 [1]; [9]) | Hoechst total cell count ratio (hAMSC donor 2 [2]; [7]) | Hoechst total cell count ratio (hAMSC donor 2 [2]; [8]) | Hoechst total cell count ratio (hAMSC donor 2 [2]; [9]) | transgenic luciferase activity (hAMSC donor 1 [3]; [8]) | transgenic luciferase activity (hAMSC donor 1 [3]; [9]) | transgenic luciferase activity (hAMSC donor 2 [4]; [7]) | transgenic luciferase activity (hAMSC donor 2 [4]; [8]) | transgenic luciferase activity (hAMSC donor 2 [4]; [9]) | transfection efficiency (hAMSC donor 1 [5]; [7]) | transfection efficiency (hAMSC donor 1 [5]; [8]) | transfection efficiency (hAMSC donor 1 [5]; [9]) | transfection efficiency (hAMSC donor 2 [6]; [7]) | transfection efficiency (hAMSC donor 2 [6]; [8]) | transfection efficiency (hAMSC donor 2 [6]; [9]) | transgenic luciferase activity (hAMSC donor 1 [3]; [7])
COc1ccc(C2CNC(=O)C2)cc1OC1CCCC1 (configuration not stated) [Rolipram] | 1.33 ± 0.25 | 1.25 ± 0.18 | 1.18 ± 0.18 | 1.13 ± 0.082 | 1.37 ± 0.067 | 1.45 ± 0.42 | 0.556 ± 0.15 | 1.31 ± 0.64 | 0.399 ± 0.098 | 0.684 ± 0.086 | 0.778 ± 0.14 | 0.796 ± 0.28 | 0.962 ± 0.31 | 1.27 ± 0.59 | 0.675 ± 0.11 | 0.962 ± 0.17 | 0.919 ± 0.17 | 
CCN(CC)CCNC(=O)c1ccc(N)cc1 [Procainamide hydrochloride] | 1.4 ± 0.19 | 1.15 ± 0.11 | 1.25 ± 0.14 | 1.11 ± 0.013 | 1.15 ± 0.032 | 1.46 ± 0.2 | 2.18 ± 0.43 |  | 0.995 ± 0.061 | 0.899 ± 0.1 | 1.33 ± 0.083 | 1.01 ± 0.028 | 0.861 ± 0.25 | 1.29 ± 0.13 | 1.38 ± 0.15 | 1.3 ± 0.17 | 1.02 ± 0.13 | 0.612 ± 0.11
Nc1nc(=O)c2nc(CNc3ccc(C(=O)N[C@@H](CCC(=O)O)C(=O)O)cc3)cnc2[nH]1 [Folic acid] | 1.42 ± 0.023 | 1.1 ± 0.042 | 1.32 ± 0.12 | 1.13 ± 0.067 | 1.102 ± 0.0078 | 1.19 ± 0.26 | 1.23 ± 0.23 | 0.521 ± 0.16 | 1.21 ± 0.19 | 0.742 ± 0.056 | 0.845 ± 0.16 | 1.24 ± 0.51 | 1.01 ± 0.29 | 1.03 ± 0.28 | 0.912 ± 0.12 | 1.07 ± 0.2 | 1.26 ± 0.19 | 
CN(C)[C@@H]1C(O)=C(C(N)=O)C(=O)[C@@]2(O)C(O)=C3C(=O)c4c(O)cccc4[C@@](C)(O)[C@H]3[C@H](O)[C@@H]12 [Oxytetracycline hydrochloride] | 1.04 ± 0.16 | 1.28 ± 0.12 | 1.42 ± 0.095 | 1.47 ± 0.1 | 0.996 ± 0.032 | 1.31 ± 0.18 | 0.197 ± 0.11 | 0.96 ± 0.56 | 1.1 ± 0.25 | 0.752 ± 0.09 | 0.562 ± 0.096 | 0.921 ± 0.29 | 1.48 ± 0.69 | 0.469 ± 0.051 | 0.768 ± 0.23 | 1.01 ± 0.24 | 0.637 ± 0.12 | 
COC1=CC(=O)C[C@@H](C)[C@]12Oc1c(Cl)c(OC)cc(OC)c1C2=O [Griseofulvin] | 1.05 ± 0.26 | 1.19 ± 0.17 | 1.17 ± 0.12 | 1.15 ± 0.18 | 1.09 ± 0.025 | 1.26 ± 0.17 | 0.276 ± 0.1 | 1.08 ± 0.19 | 1.06 ± 0.12 | 1.01 ± 0.066 | 0.545 ± 0.039 | 0.843 ± 0.12 | 1.16 ± 0.51 | 1.06 ± 0.29 | 1.06 ± 0.11 | 0.99 ± 0.13 | 0.882 ± 0.18 | 
COc1cc(C(=O)NC2CCCNC2)cc(OC)c1OC (configuration not stated) [Troxipide] | 1.38 ± 0.27 | 1.36 ± 0.029 | 1.2 ± 0.16 | 1.11 ± 0.075 | 1.3 ± 0.038 | 0.991 ± 0.16 | 1.7 ± 0.46 |  | 0.811 ± 0.091 | 0.756 ± 0.0098 | 0.719 ± 0.23 | 1.3 ± 0.49 | 0.713 ± 0.093 | 1.04 ± 0.2 | 1.25 ± 0.099 | 0.934 ± 0.038 | 1.49 ± 0.069 | 0.7 ± 0.29
CCCN[C@H]1CCc2nc(N)sc2C1 [Pramipexole] | 1.37 ± 0.2 | 1.24 ± 0.025 | 1.2 ± 0.091 | 1.1 ± 0.12 | 1.36 ± 0.086 | 1.38 ± 0.1 | 0.845 ± 0.21 | 0.555 ± 0.25 | 0.501 ± 0.21 | 0.966 ± 0.04 | 0.844 ± 0.077 | 1.29 ± 0.34 | 1.37 ± 0.1 | 1.44 ± 0.45 | 0.894 ± 0.058 | 0.789 ± 0.2 | 0.818 ± 0.15 | 
Nc1nc2c(ncn2COC(CO)CO)c(=O)[nH]1 [Ganciclovir] | 1.09 ± 0.088 | 1.22 ± 0.12 | 1.32 ± 0.16 | 1.19 ± 0.15 | 1.14 ± 0.043 | 1.32 ± 0.38 | 1.46 ± 1.2 |  | 0.998 ± 0.2 | 1.12 ± 0.64 | 0.508 ± 0.081 | 1.44 ± 0.47 | 1.34 ± 0.41 | 0.886 ± 0.18 | 0.981 ± 0.18 | 1.35 ± 0.13 | 0.864 ± 0.13 | 0.702 ± 0.15
CN(C)CCCN1c2ccccc2Sc2ccc(Cl)cc21 [Chlorpromazine hydrochloride] | 1.09 ± 0.04 | 1.32 ± 0.17 | 0.967 ± 0.17 | 1.02 ± 0.3 | 1.17 ± 0.13 | 1.36 ± 0.1 | 0.913 ± 0.25 |  | 0.69 ± 0.025 | 0.905 ± 0.11 | 0.392 ± 0.079 | 1.2 ± 0.37 | 1.37 ± 0.4 | 0.743 ± 0.21 | 1.22 ± 0.31 | 1.26 ± 0.21 | 0.833 ± 0.15 | 0.52 ± 0.12
CN1CCN(c2c(F)cc3c(=O)c(C(=O)O)cn4c3c2SCC4)CC1 [Rufloxacin hydrochloride] | 1.13 ± 0.02 | 1.18 ± 0.11 | 1.28 ± 0.14 | 0.949 ± 0.062 | 1.28 ± 0.023 | 1 ± 0.4 | 1.14 ± 0.29 |  | 1.12 ± 0.27 | 0.806 ± 0.1 | 0.608 ± 0.11 | 1.62 ± 0.19 | 1.54 ± 0.24 | 0.848 ± 0.37 | 1.38 ± 0.33 | 0.908 ± 0.066 | 1.08 ± 0.4 | 0.78 ± 0.077
C[C@H](CCC(=O)O)[C@H]1CC[C@H]2[C@@H]3C(=O)C[C@@H]4CC(=O)CC[C@]4(C)[C@H]3CC(=O)[C@]12C [Dehydrocholic acid] | 1.18 ± 0.12 | 1.08 ± 0.035 | 1.33 ± 0.061 | 0.837 ± 0.22 | 1.24 ± 0.39 | 1.2 ± 0.23 | 1.13 ± 0.47 |  | 1.13 ± 0.41 | 1.17 ± 0.53 | 0.844 ± 0.3 | 1.23 ± 0.41 | 1.58 ± 0.13 | 0.98 ± 0.086 | 1.19 ± 0.29 | 0.966 ± 0.33 | 1.05 ± 0.08 | 0.516 ± 0.044

A different layout for some results above.
Compound	Hoechst total cell count ratio (hAMSC donor 1 [1]; [7])	Hoechst total cell count ratio (hAMSC donor 1 [1]; [8])	Hoechst total cell count ratio (hAMSC donor 1 [1]; [9])	Hoechst total cell count ratio (hAMSC donor 2 [2]; [7])	Hoechst total cell count ratio (hAMSC donor 2 [2]; [8])	Hoechst total cell count ratio (hAMSC donor 2 [2]; [9])	transgenic luciferase activity (hAMSC donor 1 [3]; [8])	transgenic luciferase activity (hAMSC donor 1 [3]; [9])	transgenic luciferase activity (hAMSC donor 2 [4]; [7])	transgenic luciferase activity (hAMSC donor 2 [4]; [8])	transgenic luciferase activity (hAMSC donor 2 [4]; [9])	transfection efficiency (hAMSC donor 1 [5]; [7])	transfection efficiency (hAMSC donor 1 [5]; [8])	transfection efficiency (hAMSC donor 1 [5]; [9])	transfection efficiency (hAMSC donor 2 [6]; [7])	transfection efficiency (hAMSC donor 2 [6]; [8])	transfection efficiency (hAMSC donor 2 [6]; [9])	transgenic luciferase activity (hAMSC donor 1 [3]; [7])
COC1=CC(=O)C[C@@H](C)[C@]12Oc1c(Cl)c(OC)cc(OC)c1C2=O [Griseofulvin]	1.05 ± 0.26	1.19 ± 0.17	1.17 ± 0.12	1.15 ± 0.18	1.09 ± 0.025	1.26 ± 0.17	0.276 ± 0.1	1.08 ± 0.19	1.06 ± 0.12	1.01 ± 0.066	0.545 ± 0.039	0.843 ± 0.12	1.16 ± 0.51	1.06 ± 0.29	1.06 ± 0.11	0.99 ± 0.13	0.882 ± 0.18	
CN1CCN(c2c(F)cc3c(=O)c(C(=O)O)cn4c3c2SCC4)CC1 [Rufloxacin hydrochloride]	1.13 ± 0.02	1.18 ± 0.11	1.28 ± 0.14	0.949 ± 0.062	1.28 ± 0.023	1 ± 0.4	1.14 ± 0.29		1.12 ± 0.27	0.806 ± 0.1	0.608 ± 0.11	1.62 ± 0.19	1.54 ± 0.24	0.848 ± 0.37	1.38 ± 0.33	0.908 ± 0.066	1.08 ± 0.4	0.78 ± 0.077
